Reference: patent US20010029030A1
Results are given in words; binding and its absence hold for the method and conditions named. In cells and extracts the contact can be indirect. Some entries that bind do so weakly or less than the wild type. Where a sequence is shown, tags or fusion partners need not be part of it.

Biological target: T1, T7-epitope tagged FADD, Q13158
T1 chain: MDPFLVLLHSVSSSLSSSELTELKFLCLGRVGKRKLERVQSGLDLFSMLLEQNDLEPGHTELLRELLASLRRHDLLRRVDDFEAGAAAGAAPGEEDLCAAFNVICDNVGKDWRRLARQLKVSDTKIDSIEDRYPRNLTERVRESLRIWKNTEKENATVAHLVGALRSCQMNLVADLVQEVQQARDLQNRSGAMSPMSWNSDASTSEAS
Experiment: co-immunoprecipitation from transfected 293 cells (anti-Flag IP, T7 immunoblot)
Settings: remark: other sources report otherwise

B1: Flag-epitope tagged Fas (full length), P25445 26-335 (receptor, UniProt P25445 26-335, looked up, not shown: small tags and cut ends)
chain: QVTDINSKGLELRKTVTTVETQNLEGLHHDGQFCHKPCPPGERKARDCTVNGDEPDCVPCQEGKEYTDKAHFSSKCRRCRLCDEGHGLEVEINCTRTQNTKCRCKPNFFCNSTVCEHCDPCTKCEHGIIKECTLTSNTKCKEEGSRSNLGWLCLLLLPIPLIVWVKRKEVQKTCRKHRKENQGSHESPTLNPETVAINLSDVDLSKYITTIAGVMTLSQVKGFVRKNGVNEAKIDEIKNDNVQDTAEQKVQLLRNWHQLHGKKEAYDTLIKDLKKANLCTLAEKIQTIILKDITSDSENSNFRNEIQSLV
Question: For B1, which binding is on record?
Answer: binds
